Reference: patent US9969758B2, “Antimicrobial compounds” (BIOMERIEUX, priority 2014, dated 2018)
At least one structure is not confirmed: it was looked up by name or label, or the drawing left a doubt.

Key:
Assay in all cases: MIC by agar dilution
E. coli (53) = type: cell-based, Escherichia coli; set-up: unit not given beside the values
Description: (§1) Bacterial isolates. […] These included Citrobacter freundii (n=5), other species of Citrobacter (n=4), Enterobacter aerogenes (n=1), Enterobacter cloacae (n=27), Escherichia coli (n=53), Klebsiella oxytoca (n=5), Klebsiella pneumoniae (n=87), Kluyvera spp (n=1), Proteus mirabilis (n=8), Providencia rettgeri (n=2), Salmonella spp (n=3), and Serratia marcescens (n=1). Among these 197 isolates, there were 128 (65%) carbapenemase producers, including; 87 with NDM-1, 9 with IMP, 11 with KPC, 14 with OXA-48 and 7 with VIM. The majority of the carbapenemase producers jointly produced broad-spectrum β-lactamases (BSBL) or cephalosporinases (AmpC β-lactamases), but the latter are not documented for the sake of clarity.
(§2) Determining the minimum inhibitory concentrations (MIC). All the MICs were determined using an agar dilution method. This required use of a medium without a defined antagonist (peptone-free), prepared as described previously with the inclusion of 2% horse blood lysed with saponin, 25.0 μg/mL of NAD and 25.0 μg/mL of hemin [17]. […] The MICs of fosfomycin were determined by the same method, except that the IsoSensitest medium (Oxoid, Basingstoke, United Kingdom) was used, plus 25.0 μg/mL of glucose-6-phosphate (Sigma, Poole, United Kingdom) and an extended range of fosfomycin concentrations. […]

K. pneumoniae (87) = type: cell-based, Klebsiella pneumoniae
Description: as §1, §2

E. cloacae (27) = type: cell-based, Enterobacter cloacae; set-up: unit not given beside the values
Description: as §1, §2

[1] = system: Enterobacteriaceae with a broad-spectrum β-lactamase; type: cell-based; set-up: unit not given beside the values; details: BSBL (47)
Description: as §1, §2

E. faecalis (11) = type: cell-based, Enterococcus faecalis; set-up: unit not given beside the values
Description: (§3) A collection of 50 isolates of Staphylococci aureus included 36 strains of methicillin-resistant S. aureus (MRSA) frequently encountered in Europe, including strains isolated in Belgium, Finland, France, Germany and the United Kingdom. Another strain of MRSA, NCTC 11939, was included as a control, as well as a methicillin-sensitive control (NCTC 6571). Twelve other isolates of methicillin-sensitive Staphylococcus aureus (MSSA) recently collected from blood cultures were also included. Finally, 50 isolates of enterococci included two control strains (Enterococcus faecalis NCTC 755 and Enterococcus faecium NCTC 7171) and 48 isolates originating from clinical samples obtained from at least three different hospitals. The clinical isolates included E. faecalis (n=10), E. faecium (n=33), Enterococcus casseliflavus (n=3), Enterococcus gallinarum (n=2).
(§4) Determining the minimum inhibitory concentrations (MIC). All the MICs were determined using an agar dilution method. […] The MICs of fosfomycin were determined by the same method, except that the IsoSensitest medium (Oxoid, Basingstoke, United Kingdom) was used, plus 25.0 μg/mL of glucose-6-phosphate (Sigma, Poole, United Kingdom) and an extended range of fosfomycin concentrations. […]

All Enterococci (50) = type: cell-based; set-up: unit not given beside the values
Description: as §3, §4

[2] = system: glycopeptide-resistant enterococci; type: cell-based; set-up: unit not given beside the values; details: GRE (43)
Description: as §3, §4

Question: `C[C@H](N)C(=O)N[C@@H](C)C(=O)N[C@@H](C)P(=O)(O)O` [Di-alanyl fosfalin, L-alanyl-L-alanyl-L-1-aminoethylphosphonic acid] was tested. Which “MIC Range” value (E. coli (53)) did it give?
Answer: ≤0.031->8 ^

Question: What about the “MIC Range” value (K. pneumoniae (87)) of the same compound?
Answer: 0.5->8

Question: And the “MIC Range” value (E. cloacae (27))?
Answer: 0.25->8

Question: What about the “MIC Range” value [1] of the same compound?
Answer: ≤0.031->8 ^

Question: What about the “MIC Range” value (E. faecalis (11)) of the same compound?
Answer: ≤0.016->32^

Question: What about the “MIC Range” value (All Enterococci (50)) of the same compound?
Answer: ≤0.016->32^

Question: And the “MIC Range” value [2]?
Answer: ≤0.016->32^
